The nature of the data set: general procedure: solution-phase peptide synthesis; EDC/DMAP (esterification); EDC/HOAt (macrolactamisation). As to conditions: late stage modification step.

Turning to “(2R,5S,8R,14S,17R,20S,21S,22S,E)-8-benzyl-20-((E)-but-2-en-2-yl)-14-((R)-sec-butyl)-2-isobutyl-5,7,10,17,21,25-hexamethyl-3,6,9,12,15,18,26-heptaoxo-1,19-dioxa-4,7,10,13,16-pentaazacyclohexacos-24-en-22-yl (3-hydroxypropyl)carbamate”, the step yield was 37.4%.
